From article PMC12373796
Read-outs that look alike come from different tables or passages of the source. No constants are given. Whether binding was seen depends on the method and setting. Binding seen in cells or lysates may run through a third protein. Some binding calls cover weakened binding; strength is not graded here. For some of these results: Sequences can lack the tags named with a protein.

The chains behind the UniProt entries cited, without tags or fusion partners.
UniProt P50851: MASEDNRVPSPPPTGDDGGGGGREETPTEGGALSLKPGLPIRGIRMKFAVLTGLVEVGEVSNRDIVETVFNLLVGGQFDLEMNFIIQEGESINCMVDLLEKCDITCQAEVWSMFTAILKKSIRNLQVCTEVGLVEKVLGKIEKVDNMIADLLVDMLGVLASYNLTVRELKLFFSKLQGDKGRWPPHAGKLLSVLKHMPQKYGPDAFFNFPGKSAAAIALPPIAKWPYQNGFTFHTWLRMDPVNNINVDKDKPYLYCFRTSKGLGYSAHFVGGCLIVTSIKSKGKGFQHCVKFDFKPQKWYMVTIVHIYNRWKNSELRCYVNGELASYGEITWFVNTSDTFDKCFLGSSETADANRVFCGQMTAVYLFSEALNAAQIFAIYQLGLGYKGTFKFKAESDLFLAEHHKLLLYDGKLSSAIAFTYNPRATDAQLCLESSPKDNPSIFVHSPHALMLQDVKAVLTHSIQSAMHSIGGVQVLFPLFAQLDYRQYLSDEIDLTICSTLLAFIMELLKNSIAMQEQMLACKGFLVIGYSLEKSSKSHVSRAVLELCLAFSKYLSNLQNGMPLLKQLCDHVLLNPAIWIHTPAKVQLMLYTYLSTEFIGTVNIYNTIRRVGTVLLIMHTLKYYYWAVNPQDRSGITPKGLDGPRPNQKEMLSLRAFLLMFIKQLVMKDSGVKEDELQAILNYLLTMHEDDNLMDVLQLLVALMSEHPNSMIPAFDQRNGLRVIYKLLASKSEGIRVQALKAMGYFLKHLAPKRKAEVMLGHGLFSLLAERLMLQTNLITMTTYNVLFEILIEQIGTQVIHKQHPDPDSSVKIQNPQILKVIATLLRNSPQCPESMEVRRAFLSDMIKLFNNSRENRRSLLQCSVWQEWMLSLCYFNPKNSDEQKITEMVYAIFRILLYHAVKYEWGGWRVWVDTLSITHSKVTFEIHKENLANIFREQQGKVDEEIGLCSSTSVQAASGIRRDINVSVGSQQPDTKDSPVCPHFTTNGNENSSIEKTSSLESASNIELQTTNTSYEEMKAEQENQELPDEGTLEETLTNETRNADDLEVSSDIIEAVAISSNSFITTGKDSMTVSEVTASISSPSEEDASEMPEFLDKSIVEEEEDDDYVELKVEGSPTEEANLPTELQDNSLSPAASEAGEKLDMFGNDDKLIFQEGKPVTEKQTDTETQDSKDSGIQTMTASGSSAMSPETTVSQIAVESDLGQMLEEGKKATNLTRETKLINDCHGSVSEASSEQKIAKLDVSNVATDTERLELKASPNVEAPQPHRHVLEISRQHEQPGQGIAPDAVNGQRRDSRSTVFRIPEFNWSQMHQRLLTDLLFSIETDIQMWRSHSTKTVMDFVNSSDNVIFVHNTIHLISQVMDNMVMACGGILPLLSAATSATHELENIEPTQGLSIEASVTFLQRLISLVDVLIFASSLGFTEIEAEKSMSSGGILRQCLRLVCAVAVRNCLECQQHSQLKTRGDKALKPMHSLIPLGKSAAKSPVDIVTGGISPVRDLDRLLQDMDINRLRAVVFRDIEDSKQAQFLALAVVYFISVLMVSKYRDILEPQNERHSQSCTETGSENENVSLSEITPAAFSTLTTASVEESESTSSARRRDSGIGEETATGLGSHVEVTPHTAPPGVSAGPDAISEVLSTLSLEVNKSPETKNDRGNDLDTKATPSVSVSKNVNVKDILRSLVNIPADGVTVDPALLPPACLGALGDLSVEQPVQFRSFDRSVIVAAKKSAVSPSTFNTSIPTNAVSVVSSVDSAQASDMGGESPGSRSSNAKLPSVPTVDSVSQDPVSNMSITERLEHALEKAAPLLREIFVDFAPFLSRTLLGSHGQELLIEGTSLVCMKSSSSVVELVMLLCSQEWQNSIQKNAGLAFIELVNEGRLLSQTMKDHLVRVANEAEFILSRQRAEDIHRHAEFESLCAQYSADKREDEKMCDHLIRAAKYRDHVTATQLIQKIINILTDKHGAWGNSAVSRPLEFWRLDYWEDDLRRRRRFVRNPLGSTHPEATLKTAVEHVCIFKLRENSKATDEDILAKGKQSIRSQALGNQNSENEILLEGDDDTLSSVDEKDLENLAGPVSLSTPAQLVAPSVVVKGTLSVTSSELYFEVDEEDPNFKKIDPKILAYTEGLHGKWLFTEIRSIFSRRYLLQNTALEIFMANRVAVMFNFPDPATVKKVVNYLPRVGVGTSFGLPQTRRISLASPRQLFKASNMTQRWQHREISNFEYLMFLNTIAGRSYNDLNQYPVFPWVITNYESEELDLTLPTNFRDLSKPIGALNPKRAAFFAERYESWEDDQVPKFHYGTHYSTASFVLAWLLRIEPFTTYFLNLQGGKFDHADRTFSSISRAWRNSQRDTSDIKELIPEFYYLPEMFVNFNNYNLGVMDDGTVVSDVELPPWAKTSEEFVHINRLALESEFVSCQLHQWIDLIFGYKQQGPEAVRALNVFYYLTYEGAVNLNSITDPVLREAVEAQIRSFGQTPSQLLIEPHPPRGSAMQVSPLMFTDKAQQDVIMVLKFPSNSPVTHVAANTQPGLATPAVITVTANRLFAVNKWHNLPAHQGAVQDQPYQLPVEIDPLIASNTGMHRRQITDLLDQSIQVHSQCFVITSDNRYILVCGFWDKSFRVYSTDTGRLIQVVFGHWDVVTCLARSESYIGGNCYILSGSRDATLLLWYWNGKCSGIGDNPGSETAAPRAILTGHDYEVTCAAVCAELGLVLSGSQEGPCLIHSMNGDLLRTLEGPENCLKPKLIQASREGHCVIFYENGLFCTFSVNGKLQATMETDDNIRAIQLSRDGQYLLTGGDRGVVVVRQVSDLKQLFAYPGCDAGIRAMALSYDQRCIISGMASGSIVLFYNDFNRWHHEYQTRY
UniProt Q99570: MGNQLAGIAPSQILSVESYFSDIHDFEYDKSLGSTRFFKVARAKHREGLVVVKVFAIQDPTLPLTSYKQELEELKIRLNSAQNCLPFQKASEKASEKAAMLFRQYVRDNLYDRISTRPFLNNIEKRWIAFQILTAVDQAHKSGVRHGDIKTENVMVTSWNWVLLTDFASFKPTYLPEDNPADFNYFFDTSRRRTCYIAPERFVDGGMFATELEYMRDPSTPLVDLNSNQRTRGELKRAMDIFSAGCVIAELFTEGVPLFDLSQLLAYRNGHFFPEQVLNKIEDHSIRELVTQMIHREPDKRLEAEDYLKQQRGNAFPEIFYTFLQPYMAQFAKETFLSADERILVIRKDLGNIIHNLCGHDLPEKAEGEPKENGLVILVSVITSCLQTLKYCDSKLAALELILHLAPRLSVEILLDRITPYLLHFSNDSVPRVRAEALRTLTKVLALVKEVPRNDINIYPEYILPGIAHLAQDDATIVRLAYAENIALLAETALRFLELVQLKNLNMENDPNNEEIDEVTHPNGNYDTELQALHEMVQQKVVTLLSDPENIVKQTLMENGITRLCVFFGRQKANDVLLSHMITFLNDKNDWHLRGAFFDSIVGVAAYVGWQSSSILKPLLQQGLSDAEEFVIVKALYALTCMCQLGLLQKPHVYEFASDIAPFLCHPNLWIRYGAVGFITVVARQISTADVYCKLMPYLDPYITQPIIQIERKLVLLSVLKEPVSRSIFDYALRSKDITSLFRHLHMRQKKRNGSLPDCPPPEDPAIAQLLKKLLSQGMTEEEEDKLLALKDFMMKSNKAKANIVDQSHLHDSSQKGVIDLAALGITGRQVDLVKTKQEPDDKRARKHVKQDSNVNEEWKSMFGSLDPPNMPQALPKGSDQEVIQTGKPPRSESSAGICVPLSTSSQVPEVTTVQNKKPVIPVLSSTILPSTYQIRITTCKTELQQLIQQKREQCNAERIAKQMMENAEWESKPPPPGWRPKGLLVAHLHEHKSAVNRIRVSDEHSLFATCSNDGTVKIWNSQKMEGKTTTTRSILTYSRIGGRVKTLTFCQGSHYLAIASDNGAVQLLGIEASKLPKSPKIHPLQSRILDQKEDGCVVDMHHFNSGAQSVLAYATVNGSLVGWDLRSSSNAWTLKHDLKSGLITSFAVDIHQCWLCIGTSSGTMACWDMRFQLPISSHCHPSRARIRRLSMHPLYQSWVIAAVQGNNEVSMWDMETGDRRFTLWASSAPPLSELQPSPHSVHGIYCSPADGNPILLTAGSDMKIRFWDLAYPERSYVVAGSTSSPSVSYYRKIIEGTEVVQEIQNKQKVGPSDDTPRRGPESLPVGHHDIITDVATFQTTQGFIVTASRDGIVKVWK
UniProt Q8NEB9: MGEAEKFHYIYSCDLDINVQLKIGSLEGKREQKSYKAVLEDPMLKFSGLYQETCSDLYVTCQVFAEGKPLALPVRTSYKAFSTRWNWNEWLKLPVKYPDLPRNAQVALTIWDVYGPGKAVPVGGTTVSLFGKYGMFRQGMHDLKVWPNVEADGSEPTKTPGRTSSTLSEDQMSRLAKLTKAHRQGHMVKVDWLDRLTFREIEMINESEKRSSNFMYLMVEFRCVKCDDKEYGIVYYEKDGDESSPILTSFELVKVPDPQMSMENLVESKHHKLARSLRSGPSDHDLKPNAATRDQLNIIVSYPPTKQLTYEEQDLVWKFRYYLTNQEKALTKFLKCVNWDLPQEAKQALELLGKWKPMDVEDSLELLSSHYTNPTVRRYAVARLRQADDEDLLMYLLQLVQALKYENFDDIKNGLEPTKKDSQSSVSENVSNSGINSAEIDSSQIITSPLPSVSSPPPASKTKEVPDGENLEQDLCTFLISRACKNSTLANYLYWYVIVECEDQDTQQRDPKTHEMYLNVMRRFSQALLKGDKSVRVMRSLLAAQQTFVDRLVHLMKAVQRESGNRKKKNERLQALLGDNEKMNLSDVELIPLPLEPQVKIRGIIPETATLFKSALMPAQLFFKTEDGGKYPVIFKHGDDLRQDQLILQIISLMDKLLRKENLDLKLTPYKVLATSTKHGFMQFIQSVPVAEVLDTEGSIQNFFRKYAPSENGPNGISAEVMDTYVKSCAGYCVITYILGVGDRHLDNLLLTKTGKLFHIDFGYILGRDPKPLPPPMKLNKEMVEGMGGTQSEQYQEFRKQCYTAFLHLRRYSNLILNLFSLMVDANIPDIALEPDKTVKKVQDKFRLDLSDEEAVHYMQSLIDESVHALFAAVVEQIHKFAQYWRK
UniProt Q14457: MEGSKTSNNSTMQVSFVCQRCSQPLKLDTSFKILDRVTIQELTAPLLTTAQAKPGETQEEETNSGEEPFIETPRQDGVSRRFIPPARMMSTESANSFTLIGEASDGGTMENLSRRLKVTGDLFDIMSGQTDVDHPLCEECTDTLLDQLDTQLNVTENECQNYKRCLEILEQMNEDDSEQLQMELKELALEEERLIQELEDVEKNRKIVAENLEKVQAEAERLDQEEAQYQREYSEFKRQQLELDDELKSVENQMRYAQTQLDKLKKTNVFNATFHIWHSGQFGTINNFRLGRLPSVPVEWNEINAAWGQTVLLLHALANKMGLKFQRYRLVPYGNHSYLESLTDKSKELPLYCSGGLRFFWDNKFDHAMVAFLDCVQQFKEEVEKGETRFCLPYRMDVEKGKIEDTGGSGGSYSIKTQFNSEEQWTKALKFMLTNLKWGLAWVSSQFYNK
UniProt Q6ZNE5: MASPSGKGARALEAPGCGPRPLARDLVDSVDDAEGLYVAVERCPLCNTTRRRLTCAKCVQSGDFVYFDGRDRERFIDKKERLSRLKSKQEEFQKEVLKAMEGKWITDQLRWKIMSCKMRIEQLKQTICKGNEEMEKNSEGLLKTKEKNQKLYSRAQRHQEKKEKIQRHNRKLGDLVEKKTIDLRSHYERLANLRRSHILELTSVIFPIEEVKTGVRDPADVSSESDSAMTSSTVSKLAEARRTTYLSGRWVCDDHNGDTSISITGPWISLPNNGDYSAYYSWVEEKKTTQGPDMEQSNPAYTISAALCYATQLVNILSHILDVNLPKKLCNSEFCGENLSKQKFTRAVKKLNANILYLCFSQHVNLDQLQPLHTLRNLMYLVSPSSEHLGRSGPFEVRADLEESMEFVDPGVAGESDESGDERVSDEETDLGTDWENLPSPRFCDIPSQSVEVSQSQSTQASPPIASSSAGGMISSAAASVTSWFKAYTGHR

Key:
[1] = molecular target: Human LRBA full-length tagged to Myc-DDK (human) (UniProt P50851); experiment: co-IP; HEK293T WT cells co-transfected with Myc-LRBA and the partner's plasmid; immunoprecipitation with anti-LRBA (or anti-IgG), Dynabeads protein G; blotted for PIK3R4, VPS34 or GFP; IP buffer 50 mM Tris-HCl pH 6.8, 150 mM NaCl, 0.2% NP-40, 1 mM EDTA
[2] = molecular target: phosphoinositide 3-kinase regulatory subunit 4 (PIK3R4), endogenous (human (endogenous in HEK293T and LCL)) (UniProt Q99570); experiment: co-IP; endogenous proteins in WT and LRBA-KO HEK293T cells; PIK3R4 immunoprecipitated with anti-PIK3R4, Dynabeads protein G, blotted for LRBA; IP buffer 50 mM Tris-HCl pH 6.8, 150 mM NaCl, 0.2% NP-40, 1 mM EDTA
[3] = molecular target: VPS34, endogenous (human (endogenous in LCL)) (UniProt Q8NEB9); experiment: proximity ligation; Duolink in situ PLA on fixed (4% PFA) and permeabilised (0.1% Triton X-100) LCL cells of healthy donors and LRBA-deficient patients, resting conditions; endogenous proteins
[4] = molecular target: Beclin-1, endogenous (human (endogenous in LCL)) (UniProt Q14457); experiment: as above
[5] = molecular target: phosphoinositide 3-kinase regulatory subunit 4 (PIK3R4), endogenous (human (endogenous in HEK293T and LCL)) (UniProt Q99570); experiment: as above
[6] = molecular target: Human LRBA full-length tagged to Myc-DDK (human) (UniProt P50851); experiment: co-IP; HEK293T WT cells co-transfected with Myc-LRBA and the partner's plasmid; immunoprecipitation with anti-LRBA (or anti-IgG), Dynabeads protein G; blotted for PIK3R4, VPS34 or GFP; IP buffer 50 mM Tris-HCl pH 6.8, 150 mM NaCl, 0.2% NP-40, 1 mM EDTA; remark: listed apart in the source

## GFP-ATG14L (from UniProt Q6ZNE5 1-492)
[1]
  binding: no binding

## His-tagged full-length PIK3R4 (from UniProt Q99570 1-1358)
[1]
  binding: binds

## lipopolysaccharide-responsive beige-like anchor protein (LRBA), endogenous (from UniProt P50851 1-2863)
[2]
  binding: binds
[3]
  binding: no binding
[4]
  binding: no binding
[5]
  binding: binds

B1: GFP-FYCO1 (protein, UniProt Q9BQS8 1-1478)
chain: MASTNAESQLQRIIRDLQDAVTELSKEFQEAGEPITDDSTSLHKFSYKLEYLLQFDQKEKATLLGNKKDYWDYFCACLAKVKGANDGIRFVKSISELRTSLGKGRAFIRYSLVHQRLADTLQQCFMNTKVTSDWYYARSPFLQPKLSSDIVGQLYELTEVQFDLASRGFDLDAAWPTFARRTLTTGSSAYLWKPPSRSSSMSSLVSSYLQTQEMVSNFDLNSPLNNEALEGFDEMRLELDQLEVREKQLRERMQQLDRENQELRAAVSQQGEQLQTERERGRTAAEDNVRLTCLVAELQKQWEVTQATQNTVKELQTCLQGLELGAAEKEEDYHTALRRLESMLQPLAQELEATRDSLDKKNQHLASFPGWLAMAQQKADTASDTKGRQEPIPSDAAQEMQELGEKLQALERERTKVEEVNRQQSAQLEQLVKELQLKEDARASLERLVKEMAPLQEELSGKGQEADQLWRRLQELLAHTSSWEEELAELRREKKQQQEEKELLEQEVRSLTRQLQFLETQLAQVSQHVSDLEEQKKQLIQDKDHLSQQVGMLERLAGPPGPELPVAGEKNEALVPVNSSLQEAWGKPEEEQRGLQEAQLDDTKVQEGSQEEELRQANRELEKELQNVVGRNQLLEGKLQALQADYQALQQRESAIQGSLASLEAEQASIRHLGDQMEASLLAVRKAKEAMKAQMAEKEAILQSKEGECQQLREEVEQCQQLAEARHRELRALESQCQQQTQLIEVLTAEKGQQGVGPPTDNEARELAAQLALSQAQLEVHQGEVQRLQAQVVDLQAKMRAALDDQDKVQSQLSMAEAVLREHKTLVQQLKEQNEALNRAHVQELLQCSEREGALQEERADEAQQREEELRALQEELSQAKCSSEEAQLEHAELQEQLHRANTDTAELGIQVCALTVEKERVEEALACAVQELQDAKEAASREREGLERQVAGLQQEKESLQEKLKAAKAAAGSLPGLQAQLAQAEQRAQSLQEAAHQELNTLKFQLSAEIMDYQSRLKNAGEECKSLRGQLEEQGRQLQAAEEAVEKLKATQADMGEKLSCTSNHLAECQAAMLRKDKEGAALREDLERTQKELEKATTKIQEYYNKLCQEVTNRERNDQKMLADLDDLNRTKKYLEERLIELLRDKDALWQKSDALEFQQKLSAEERWLGDTEANHCLDCKREFSWMVRRHHCRICGRIFCYYCCNNYVLSKHGGKKERCCRACFQKLSEGPGSPDSSGSGTSQGEPSPALSPASPGPQATGGQGANTDYRPPDDAVFDIITDEELCQIQESGSSLPETPTETDSLDPNAAEQDTTSTSLTPEDTEDMPVGQDSEICLLKSGELMIKVPLTVDEIASFGEGSRELFVRSSTYSLIPITVAEAGLTISWVFSSDPKSISFSVVFQEAEDTPLDQCKVLIPTTRCNSHKENIQGQLKVRTPGIYMLIFDNTFSRFVSKKVFYHLTVDRPVIYDGSDFL
[6]
  binding: binds
